Measured values from article PMC6126813.
Results are given in words; binding and its absence hold for the method and conditions named. Tags and fused reporters may be left off the sequences shown.

T1: Pseudomonas aeruginosa recombinant B-type flagellin (rFlaB) from strain PAO1 (Pseudomonas aeruginosa PAO1), P72151
T1 chain: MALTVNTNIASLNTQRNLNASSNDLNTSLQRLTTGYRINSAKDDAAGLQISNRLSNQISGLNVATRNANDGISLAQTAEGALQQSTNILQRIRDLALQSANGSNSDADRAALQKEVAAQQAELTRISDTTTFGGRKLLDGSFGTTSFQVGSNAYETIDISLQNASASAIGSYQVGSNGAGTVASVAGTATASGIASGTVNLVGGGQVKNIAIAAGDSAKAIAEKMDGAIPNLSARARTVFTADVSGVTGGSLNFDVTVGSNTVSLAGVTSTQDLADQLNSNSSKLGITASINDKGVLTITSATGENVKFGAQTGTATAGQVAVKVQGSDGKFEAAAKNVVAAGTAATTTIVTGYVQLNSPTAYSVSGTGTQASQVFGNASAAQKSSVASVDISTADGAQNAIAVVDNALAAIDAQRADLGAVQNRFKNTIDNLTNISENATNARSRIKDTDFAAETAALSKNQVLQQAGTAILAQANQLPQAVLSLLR


How the values were obtained:
[1] = target: T1, Pseudomonas aeruginosa recombinant …; assay: SEC; HPLC-SEC of the purified recombinant flagellin (column and buffer are told for the polysaccharides: Biosep SEC4000, 1 mL/min, PBS / 0.02% sodium azide pH 7.4); both purified; conditions: remark: other sources report otherwise
[2] = target: Pseudomonas aeruginosa recombinant A-type flagellin (rFlaA) from strain PAK (Pseudomonas aeruginosa PAK) (UniProt P21184); assay: as above

| Binder | binding [1] | binding [2] |
| --- | --- | --- |
| Pseudomonas aeruginosa recombinant B-type flagellin (rFlaB) from strain PAO1, P72151 1-488 (protein) MALTVNTNIASLNTQRNLNASSNDLNTSLQRLTTGYRINSAKDDAAGLQISNRLSNQISGLNVATRNANDGISLAQTAEGALQQSTNILQRIRDLALQSANGSNSDADRAALQKEVAAQQAELTRISDTTTFGGRKLLDGSFGTTSFQVGSNAYETIDISLQNASASAIGSYQVGSNGAGTVASVAGTATASGIASGTVNLVGGGQVKNIAIAAGDSAKAIAEKMDGAIPNLSARARTVFTADVSGVTGGSLNFDVTVGSNTVSLAGVTSTQDLADQLNSNSSKLGITASINDKGVLTITSATGENVKFGAQTGTATAGQVAVKVQGSDGKFEAAAKNVVAAGTAATTTIVTGYVQLNSPTAYSVSGTGTQASQVFGNASAAQKSSVASVDISTADGAQNAIAVVDNALAAIDAQRADLGAVQNRFKNTIDNLTNISENATNARSRIKDTDFAAETAALSKNQVLQQAGTAILAQANQLPQAVLSLLR | no binding |  |
| Pseudomonas aeruginosa recombinant A-type flagellin (rFlaA) from strain PAK (protein, UniProt P21184 1-394) MALTVNTNIASLNTQRNLNNSSASLNTSLQRLSTGSRINSAKDDAAGLQIANRLTSQVNGLNVATKNANDGISLAQTAEGALQQSTNILQRMRDLSLQSANGSNSDSERTALNGEVKQLQKELDRISNTTTFGGRKLLDGSFGVASFQVGSAANEIISVGIDEMSAESLNGTYFKADGGGAVTAATASGTVDIAIGITGGSAVNVKVDMKGNETAEQAAAKIAAAVNDANVGIGAFSDGDTISYVSKAGKDGSGAITSAVSGVVIADTGSTGVGTAAGVTPSATAFAKTNDTVAKIDISTAKGAQSAVLVIDEAIKQIDAQRADLGAVQNRFDNTINNLKNIGENVSAARGRIEDTDFAAETANLTKNQVLQQAGTAILAQANQLPQSVLSLLR |  | no binding |
